The chains behind the UniProt entries cited, without tags or fusion partners. Residues count along the entry.
UniProt P01137, 30-390: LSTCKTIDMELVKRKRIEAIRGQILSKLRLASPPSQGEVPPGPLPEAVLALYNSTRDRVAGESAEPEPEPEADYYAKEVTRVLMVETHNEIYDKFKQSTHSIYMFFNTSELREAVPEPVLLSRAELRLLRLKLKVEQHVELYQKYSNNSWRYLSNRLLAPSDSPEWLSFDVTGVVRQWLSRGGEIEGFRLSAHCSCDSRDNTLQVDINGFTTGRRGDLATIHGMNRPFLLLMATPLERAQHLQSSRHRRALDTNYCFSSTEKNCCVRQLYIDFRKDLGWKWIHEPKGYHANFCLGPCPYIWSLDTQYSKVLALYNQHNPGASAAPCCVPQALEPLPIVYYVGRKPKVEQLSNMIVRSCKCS
UniProt P02769, 25-607: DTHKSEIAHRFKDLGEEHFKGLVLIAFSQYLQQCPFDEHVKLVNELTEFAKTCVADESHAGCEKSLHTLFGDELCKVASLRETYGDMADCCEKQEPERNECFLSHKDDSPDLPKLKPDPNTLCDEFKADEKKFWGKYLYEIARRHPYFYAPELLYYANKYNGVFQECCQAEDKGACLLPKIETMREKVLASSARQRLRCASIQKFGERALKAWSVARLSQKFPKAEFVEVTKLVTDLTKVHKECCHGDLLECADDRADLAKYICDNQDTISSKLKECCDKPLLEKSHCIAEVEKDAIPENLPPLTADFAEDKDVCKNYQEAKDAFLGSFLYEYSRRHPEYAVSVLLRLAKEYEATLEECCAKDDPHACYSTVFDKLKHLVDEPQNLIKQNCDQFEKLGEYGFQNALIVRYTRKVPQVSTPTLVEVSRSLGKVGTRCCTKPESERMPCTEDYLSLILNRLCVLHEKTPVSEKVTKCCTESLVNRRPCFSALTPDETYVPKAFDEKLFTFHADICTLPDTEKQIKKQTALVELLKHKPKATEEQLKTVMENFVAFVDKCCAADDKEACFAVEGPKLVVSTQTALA

In paper PMC12499412:

Legend:
latent TGFβ1 = latent TGFβ1 (UniProt P01137); assay: MST; settings: 37 °C, 2 h, phosphorothioates at A and C bases (positions marked * in Table S3), MST: 30 nM Cy5-a'-Apt final with 45 pM (4.5 pM in Fig S3 legend) to 1.5 uM protein, specificity MST 5 nM aptamer, 0.25 uM protein, commercial protein, label: 5'-Cy5, single-stranded DNA
BSA = BSA (UniProt P02769); assay: MST; settings: aptamer:protein 1:50; phosphorothioates at A and C bases (positions marked * in Table S3); MST: 30 nM Cy5-a'-Apt final with 45 pM (4.5 pM in Fig S3 legend) to 1.5 uM protein, 37 °C, 2 h; specificity MST 5 nM aptamer, 0.25 uM protein; commercial protein; label: 5'-Cy5; single-stranded DNA

Question: For “TCGCTCGGCTTCACGAGATTCGTGTCGTTGTGTCCTGTACCCGCCTTGACCAGTCACTCTAGAGCATCCGGACTGTAGATGGAGTGTGGTGTGAAG [Cy5-a'-Apt]”, which Kd (latent TGFβ1) is on record?
Answer: 152 nM

Question: Does “TCGCTCGGCTTCACGAGATTCGTGTCGTTGTGTCCTGTACCCGCCTTGACCAGTCACTCTAGAGCATCCGGACTGTAGATGGAGTGTGGTGTGAAG [Cy5-a'-Apt]” bind (BSA)?
Answer: no binding

For some assays here: Negatives hold for the conditions tested. For some assays here: Construct, isoform or probe ends are uncertain for at least one entry.
